We go through 1 substance from PMC7054785.

Amino acid sequences for entries named in this document (tags omitted).
UniProt P10415: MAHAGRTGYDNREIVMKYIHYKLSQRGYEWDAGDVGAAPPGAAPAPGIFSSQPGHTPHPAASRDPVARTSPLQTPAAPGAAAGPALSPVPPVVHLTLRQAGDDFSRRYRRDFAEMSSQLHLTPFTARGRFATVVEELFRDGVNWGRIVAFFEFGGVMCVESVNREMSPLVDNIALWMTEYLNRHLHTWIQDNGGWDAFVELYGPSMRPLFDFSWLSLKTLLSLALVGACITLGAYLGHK
UniProt O60260: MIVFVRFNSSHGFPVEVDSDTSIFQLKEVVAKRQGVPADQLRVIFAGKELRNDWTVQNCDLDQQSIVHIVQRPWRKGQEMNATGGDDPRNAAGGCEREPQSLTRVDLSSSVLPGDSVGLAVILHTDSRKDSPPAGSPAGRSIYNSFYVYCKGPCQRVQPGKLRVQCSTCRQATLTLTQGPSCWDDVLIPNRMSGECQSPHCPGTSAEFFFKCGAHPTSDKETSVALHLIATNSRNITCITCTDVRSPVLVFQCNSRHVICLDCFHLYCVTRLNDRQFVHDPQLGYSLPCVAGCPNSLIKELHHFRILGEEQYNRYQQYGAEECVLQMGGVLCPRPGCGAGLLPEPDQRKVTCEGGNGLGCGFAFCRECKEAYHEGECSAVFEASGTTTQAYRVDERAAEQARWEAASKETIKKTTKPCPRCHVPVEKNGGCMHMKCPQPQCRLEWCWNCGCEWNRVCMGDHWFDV

No constants are given. Whether binding was seen depends on the method and setting. Binding seen in cells or lysates may run through a third protein. Some binding calls cover weakened binding; strength is not graded here.

The target of this experiment is Bcl-2 (human (endogenous in A549)) (UniProt P10415). The experiment can be described thus: co-IP; immunoprecipitation from A549 cells exposed to LPS; precipitating antibody and conditions not stated.

Parkin (from UniProt O60260 1-465): the binding result was “binds”.
